We go through 30 targets from the supplement of paper PMC10849652.

The chains behind the UniProt entries cited, without tags or fusion partners. Where a name states a change or a piece, a line headed by the entry shows the natural chain unless it says otherwise.
UniProt Q6RW13: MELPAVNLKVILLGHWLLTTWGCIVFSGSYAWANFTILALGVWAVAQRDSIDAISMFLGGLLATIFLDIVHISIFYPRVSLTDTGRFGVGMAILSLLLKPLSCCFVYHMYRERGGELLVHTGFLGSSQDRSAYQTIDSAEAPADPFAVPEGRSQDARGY
UniProt P35573: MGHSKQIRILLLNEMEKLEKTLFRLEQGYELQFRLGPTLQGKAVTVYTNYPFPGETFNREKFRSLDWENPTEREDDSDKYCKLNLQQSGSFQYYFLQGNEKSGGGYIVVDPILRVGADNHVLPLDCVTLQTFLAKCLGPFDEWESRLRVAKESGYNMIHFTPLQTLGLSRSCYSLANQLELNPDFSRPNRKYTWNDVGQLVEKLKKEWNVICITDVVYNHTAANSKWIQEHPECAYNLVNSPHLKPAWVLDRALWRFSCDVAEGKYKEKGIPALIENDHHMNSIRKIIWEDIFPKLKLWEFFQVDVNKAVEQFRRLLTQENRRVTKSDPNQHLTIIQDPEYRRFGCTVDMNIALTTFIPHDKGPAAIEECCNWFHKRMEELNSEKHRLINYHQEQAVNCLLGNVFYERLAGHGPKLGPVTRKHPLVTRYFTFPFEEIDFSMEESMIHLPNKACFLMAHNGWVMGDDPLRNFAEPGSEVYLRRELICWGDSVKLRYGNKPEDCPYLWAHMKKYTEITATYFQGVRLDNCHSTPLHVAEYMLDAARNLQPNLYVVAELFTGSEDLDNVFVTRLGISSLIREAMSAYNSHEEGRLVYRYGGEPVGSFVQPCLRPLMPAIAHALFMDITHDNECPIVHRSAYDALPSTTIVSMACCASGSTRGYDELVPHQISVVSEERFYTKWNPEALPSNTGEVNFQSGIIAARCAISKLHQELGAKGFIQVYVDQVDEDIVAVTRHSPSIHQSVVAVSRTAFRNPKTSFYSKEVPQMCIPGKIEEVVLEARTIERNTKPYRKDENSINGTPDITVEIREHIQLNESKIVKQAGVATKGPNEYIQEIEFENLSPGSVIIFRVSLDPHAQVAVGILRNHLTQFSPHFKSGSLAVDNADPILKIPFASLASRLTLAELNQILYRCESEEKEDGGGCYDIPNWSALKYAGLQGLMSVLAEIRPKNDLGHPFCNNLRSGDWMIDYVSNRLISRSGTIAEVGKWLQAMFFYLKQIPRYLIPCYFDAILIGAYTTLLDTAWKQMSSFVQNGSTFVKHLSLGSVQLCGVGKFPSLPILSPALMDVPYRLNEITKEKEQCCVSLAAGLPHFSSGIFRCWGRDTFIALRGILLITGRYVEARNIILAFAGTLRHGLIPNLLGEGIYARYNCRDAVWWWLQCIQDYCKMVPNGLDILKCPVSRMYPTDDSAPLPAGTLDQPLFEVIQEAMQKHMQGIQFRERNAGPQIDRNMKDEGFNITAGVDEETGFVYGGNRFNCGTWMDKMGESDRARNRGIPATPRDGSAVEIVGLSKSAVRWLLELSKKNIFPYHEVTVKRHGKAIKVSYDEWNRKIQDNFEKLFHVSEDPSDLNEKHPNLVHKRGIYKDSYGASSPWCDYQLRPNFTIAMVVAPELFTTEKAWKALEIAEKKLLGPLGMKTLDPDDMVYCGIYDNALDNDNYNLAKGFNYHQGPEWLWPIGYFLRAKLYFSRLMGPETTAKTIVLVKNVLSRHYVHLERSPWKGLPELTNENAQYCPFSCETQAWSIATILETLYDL
UniProt Q96Q83: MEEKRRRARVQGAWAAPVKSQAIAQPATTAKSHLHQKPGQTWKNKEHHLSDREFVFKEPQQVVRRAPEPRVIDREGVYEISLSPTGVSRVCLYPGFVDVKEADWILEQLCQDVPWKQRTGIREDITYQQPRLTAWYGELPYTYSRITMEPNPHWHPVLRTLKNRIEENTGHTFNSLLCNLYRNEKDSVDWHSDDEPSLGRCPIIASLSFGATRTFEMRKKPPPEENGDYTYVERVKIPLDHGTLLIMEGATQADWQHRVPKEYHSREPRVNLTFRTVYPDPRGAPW
UniProt Q8WYP5: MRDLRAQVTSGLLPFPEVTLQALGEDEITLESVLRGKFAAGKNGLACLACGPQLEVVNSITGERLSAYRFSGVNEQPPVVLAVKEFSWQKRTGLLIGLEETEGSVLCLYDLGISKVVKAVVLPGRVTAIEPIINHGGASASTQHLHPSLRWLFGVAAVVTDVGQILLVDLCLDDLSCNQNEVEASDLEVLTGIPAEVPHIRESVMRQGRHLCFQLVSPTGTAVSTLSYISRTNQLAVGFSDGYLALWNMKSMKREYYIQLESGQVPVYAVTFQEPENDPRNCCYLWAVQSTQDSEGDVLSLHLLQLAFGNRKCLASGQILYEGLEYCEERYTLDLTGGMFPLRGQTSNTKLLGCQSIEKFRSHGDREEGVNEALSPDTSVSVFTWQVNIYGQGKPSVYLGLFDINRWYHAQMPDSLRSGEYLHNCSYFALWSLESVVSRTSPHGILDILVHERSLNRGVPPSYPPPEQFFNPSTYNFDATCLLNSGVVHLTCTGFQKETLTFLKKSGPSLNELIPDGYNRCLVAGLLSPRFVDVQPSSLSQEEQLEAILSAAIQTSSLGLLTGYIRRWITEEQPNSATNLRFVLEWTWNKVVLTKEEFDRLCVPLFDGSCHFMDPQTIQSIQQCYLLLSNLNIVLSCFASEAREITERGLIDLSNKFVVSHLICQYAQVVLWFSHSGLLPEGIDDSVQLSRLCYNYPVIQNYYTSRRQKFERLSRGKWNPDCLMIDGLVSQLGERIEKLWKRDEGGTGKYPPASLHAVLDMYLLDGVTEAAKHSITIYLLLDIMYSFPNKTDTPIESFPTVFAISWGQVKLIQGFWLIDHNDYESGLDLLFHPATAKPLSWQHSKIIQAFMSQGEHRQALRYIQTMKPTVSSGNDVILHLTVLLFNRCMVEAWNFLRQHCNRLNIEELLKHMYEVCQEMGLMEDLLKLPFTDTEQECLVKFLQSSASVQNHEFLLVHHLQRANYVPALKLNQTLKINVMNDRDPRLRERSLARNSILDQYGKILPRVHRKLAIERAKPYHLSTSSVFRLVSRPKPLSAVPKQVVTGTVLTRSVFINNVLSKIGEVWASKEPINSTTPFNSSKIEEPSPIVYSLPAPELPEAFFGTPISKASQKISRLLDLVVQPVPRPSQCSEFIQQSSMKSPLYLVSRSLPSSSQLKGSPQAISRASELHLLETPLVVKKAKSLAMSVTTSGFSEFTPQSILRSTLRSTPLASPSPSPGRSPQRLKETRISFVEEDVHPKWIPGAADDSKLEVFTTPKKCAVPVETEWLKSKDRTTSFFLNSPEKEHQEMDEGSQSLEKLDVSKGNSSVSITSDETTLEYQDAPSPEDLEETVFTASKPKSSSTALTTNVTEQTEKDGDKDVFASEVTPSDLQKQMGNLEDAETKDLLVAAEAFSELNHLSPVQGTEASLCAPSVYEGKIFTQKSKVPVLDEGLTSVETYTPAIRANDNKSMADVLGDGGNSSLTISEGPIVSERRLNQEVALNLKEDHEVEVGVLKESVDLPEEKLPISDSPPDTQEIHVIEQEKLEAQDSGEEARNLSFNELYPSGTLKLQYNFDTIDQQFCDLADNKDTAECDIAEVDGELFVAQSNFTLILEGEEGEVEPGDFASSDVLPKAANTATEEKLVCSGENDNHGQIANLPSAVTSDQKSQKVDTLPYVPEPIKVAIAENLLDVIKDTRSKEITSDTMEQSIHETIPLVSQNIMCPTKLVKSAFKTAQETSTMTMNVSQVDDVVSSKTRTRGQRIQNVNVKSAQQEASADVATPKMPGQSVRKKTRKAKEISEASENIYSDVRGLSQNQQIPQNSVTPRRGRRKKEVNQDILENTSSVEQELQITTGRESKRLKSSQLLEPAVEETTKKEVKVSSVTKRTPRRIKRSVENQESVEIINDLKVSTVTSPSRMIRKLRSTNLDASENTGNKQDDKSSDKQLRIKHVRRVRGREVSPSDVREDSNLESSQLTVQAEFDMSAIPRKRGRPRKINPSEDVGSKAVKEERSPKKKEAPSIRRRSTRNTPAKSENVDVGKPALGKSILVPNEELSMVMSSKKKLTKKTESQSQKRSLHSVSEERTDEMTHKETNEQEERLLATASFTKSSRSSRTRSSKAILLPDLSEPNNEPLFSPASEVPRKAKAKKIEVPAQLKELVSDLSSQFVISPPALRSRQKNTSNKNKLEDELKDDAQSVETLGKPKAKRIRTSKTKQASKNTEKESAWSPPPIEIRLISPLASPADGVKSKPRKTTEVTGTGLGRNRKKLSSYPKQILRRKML
UniProt P13196: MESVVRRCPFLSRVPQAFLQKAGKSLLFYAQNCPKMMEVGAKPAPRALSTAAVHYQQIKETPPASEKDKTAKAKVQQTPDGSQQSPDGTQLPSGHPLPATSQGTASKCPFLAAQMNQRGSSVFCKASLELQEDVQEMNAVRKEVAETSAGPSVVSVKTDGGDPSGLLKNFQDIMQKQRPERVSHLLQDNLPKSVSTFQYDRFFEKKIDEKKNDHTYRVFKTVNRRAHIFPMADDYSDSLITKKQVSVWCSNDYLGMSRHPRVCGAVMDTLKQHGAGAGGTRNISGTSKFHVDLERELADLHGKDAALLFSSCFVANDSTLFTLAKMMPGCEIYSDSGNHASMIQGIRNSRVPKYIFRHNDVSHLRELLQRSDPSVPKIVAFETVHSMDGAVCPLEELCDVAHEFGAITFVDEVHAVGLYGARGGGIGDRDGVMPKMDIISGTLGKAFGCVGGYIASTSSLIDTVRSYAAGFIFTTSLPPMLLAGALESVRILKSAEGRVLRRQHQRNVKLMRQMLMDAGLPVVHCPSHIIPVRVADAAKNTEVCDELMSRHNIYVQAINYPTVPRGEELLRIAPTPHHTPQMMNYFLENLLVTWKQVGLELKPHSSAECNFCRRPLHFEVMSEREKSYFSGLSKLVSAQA
UniProt Q9UIJ7: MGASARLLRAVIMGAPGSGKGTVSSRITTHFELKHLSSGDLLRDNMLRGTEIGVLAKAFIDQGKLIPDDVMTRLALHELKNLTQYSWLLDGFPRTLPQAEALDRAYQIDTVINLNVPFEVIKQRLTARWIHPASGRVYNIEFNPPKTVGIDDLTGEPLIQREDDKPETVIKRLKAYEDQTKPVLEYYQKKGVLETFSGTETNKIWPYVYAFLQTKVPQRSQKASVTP
UniProt Q01433: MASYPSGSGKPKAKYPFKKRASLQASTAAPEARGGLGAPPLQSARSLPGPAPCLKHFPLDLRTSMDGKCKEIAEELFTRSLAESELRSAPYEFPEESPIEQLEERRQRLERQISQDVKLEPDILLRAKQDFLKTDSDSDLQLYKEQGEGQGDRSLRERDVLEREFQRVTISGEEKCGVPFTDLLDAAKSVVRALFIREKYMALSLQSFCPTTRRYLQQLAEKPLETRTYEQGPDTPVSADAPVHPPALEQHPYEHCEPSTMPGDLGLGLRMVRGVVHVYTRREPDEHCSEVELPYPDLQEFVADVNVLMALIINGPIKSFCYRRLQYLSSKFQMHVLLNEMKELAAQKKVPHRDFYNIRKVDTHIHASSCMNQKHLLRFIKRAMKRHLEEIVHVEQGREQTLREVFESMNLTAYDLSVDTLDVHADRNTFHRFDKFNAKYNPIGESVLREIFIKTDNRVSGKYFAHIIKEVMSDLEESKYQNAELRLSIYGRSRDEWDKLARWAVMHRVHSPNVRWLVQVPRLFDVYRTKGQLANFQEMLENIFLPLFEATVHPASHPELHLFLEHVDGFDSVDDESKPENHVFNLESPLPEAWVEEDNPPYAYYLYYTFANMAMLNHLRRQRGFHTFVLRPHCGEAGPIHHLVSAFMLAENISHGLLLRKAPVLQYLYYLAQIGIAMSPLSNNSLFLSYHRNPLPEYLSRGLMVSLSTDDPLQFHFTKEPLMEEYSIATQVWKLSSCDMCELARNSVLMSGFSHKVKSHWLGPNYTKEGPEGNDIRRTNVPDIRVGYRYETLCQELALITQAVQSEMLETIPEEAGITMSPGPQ
UniProt Q3MIX3: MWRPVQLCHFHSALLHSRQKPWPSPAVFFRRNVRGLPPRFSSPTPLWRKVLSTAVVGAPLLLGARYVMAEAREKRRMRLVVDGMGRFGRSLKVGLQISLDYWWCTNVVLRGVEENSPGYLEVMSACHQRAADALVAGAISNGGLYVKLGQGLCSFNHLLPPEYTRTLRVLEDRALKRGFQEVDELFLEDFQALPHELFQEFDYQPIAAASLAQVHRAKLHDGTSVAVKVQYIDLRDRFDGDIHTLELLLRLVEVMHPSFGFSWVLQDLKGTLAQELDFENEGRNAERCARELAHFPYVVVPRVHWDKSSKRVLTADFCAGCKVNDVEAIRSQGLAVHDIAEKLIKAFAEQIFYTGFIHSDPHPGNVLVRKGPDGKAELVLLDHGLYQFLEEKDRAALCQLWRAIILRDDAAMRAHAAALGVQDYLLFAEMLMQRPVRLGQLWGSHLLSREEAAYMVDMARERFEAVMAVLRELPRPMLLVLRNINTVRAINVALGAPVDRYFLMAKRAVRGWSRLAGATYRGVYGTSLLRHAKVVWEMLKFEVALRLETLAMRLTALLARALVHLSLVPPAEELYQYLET
UniProt Q9NYG5, whole entry, looked up: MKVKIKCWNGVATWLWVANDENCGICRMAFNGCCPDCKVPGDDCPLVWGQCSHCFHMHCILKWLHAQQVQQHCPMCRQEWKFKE

The other results are listed elsewhere or left out.

Compound in this test: c1cn2cc(-c3ccc4cn[nH]c4c3)nc(Nc3ccc(N4CCOCC4)cc3)c2n1 [entospletinib]
The test can be described thus: log2 fold change, soluble protein after heating vs DMSO (PISA); higher = thermal stabilisation; K562 cells, 10 uM, 30 min; active = over 0.2 and 3.5 SD of the protein, either way, in both replicates (recomputed). In a few lines: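 K562 cells (2×10^6 cells/mL) were treated with 10 μM compound for 30 min, and aliquots were heated for 3 min over 48°C-58°C. Pooled aliquots were extracted in PBS with 0.5% NP-40 at 4°C, and the supernatant after 21,000xg for 90 min was measured by TMTpro 16plex LC-MS/MS with channel sums equalised. Reported thermal stability, relative to control samples and from duplicates, is a log2 fold change.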
Take ANAPC15 isoform 2 (UniProt P60006): the log2 fold change was inactive: 0.099.
Under AGTRAP isoform 2 (UniProt Q6RW13) stands inactive: 0.018; under ALAD isoform 2 (UniProt P13716), inactive: -0.001; under AGL (UniProt P35573), inactive: 0.303.
Under AKTIP isoform 2 (UniProt Q9H8T0) stands inactive: -0.207; under ALKBH3 (UniProt Q96Q83), inactive: 0.016; under ALDH1A1 (UniProt P00352), inactive: 0.065.
Under AHCTF1 isoform 2 (UniProt Q8WYP5) stands inactive: -0.093.
As to ADO (UniProt Q96SZ5), the log2 fold change is inactive: 0.01.
Under ALAS1 (UniProt P13196) stands inactive: 0.06; under AFTPH isoform 9 (UniProt Q6ULP2), inactive: 0.03; under ALG8 (UniProt Q9BVK2), inactive: 0.056.
Under AK4 (UniProt P27144) stands inactive: -0.002.
Under AMN1 (UniProt Q8IY45) stands inactive: 0.056; under AK3 (UniProt Q9UIJ7), inactive: 0.025.
As to ADPGK (UniProt Q9BRR6), the log2 fold change is inactive: 0.038.
Take AIFM1 (UniProt O95831): the log2 fold change is inactive: 0.001.
Take ADI1 (UniProt Q9BV57): the log2 fold change is inactive: -0.064.
With AMPD2 (UniProt Q01433) the figure was inactive: 0.023; with ALYREF (UniProt Q86V81), inactive: 0.09; with ALDH16A1 (UniProt Q8IZ83), inactive: -0.022.
As for AHCY (UniProt P23526), the log2 fold change was inactive: -0.004.
Under AKR7A2 (UniProt O43488) stands inactive: -0.017; under AFP (UniProt P02771), inactive: 0.374; under ADCK5 (UniProt Q3MIX3), inactive: 0.104.
With ANAPC1 (UniProt Q9H1A4) the figure was inactive: 0.005.
With AKAP9 isoform 6 (UniProt Q99996) the figure was inactive: -0.119; with ANAPC11 (UniProt Q9NYG5), inactive: 0.08.
Regarding ALDH1A2 (UniProt O94788), the log2 fold change is inactive: 0.067.
With ALG6 (UniProt Q9Y672) the figure was inactive: -0.076.
